Results are given in words; binding and its absence hold for the method and conditions named. For part of these data: Binding seen in cells or lysates may run through a third protein. Some binding calls cover weakened binding; strength is not graded here. Where a sequence is shown, tags or fusion partners need not be part of it.
Assays:
[1] = molecular target: MBP-TrkB-454-821 (UniProt Q63604); experiment: pull-down; competition: MBP-TrkB-454-821 on amylose resin, 1 μg GST-SIPA1L2-1-624, 10× molar excess of TAT-SIPA1L2 or TAT-scr peptide, 4 °C overnight; detection with anti-SIPA1L2; both purified
[2] = molecular target: T1, GFP-Snapin (UniProt P60192); experiment: co-IP; heterologous, HEK293T lysate, lysis buffer without SDS; GFP-Snapin forms precipitated with anti-GFP magnetic beads
T1 sequence: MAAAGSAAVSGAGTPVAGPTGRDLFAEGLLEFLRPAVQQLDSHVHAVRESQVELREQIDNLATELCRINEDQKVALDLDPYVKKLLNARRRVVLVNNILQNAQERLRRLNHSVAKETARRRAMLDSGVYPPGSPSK

Chains of the proteins cited; added tags and fusions are not shown. Residues count along the entry.
UniProt Q63604, residues 454-821: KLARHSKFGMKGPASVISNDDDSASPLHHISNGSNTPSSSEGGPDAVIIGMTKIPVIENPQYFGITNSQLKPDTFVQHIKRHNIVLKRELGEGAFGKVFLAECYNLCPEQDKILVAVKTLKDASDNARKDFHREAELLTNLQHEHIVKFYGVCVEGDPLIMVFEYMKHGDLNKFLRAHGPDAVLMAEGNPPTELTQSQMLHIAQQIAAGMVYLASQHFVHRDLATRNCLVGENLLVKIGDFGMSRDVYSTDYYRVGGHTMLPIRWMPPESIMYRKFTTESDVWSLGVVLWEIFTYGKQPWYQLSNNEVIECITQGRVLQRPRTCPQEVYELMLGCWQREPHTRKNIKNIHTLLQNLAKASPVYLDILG

[3] = molecular target: T2, Intein-tagged SIPA1L2-470-1025 (UniProt Q5JCS6); experiment: pull-down; Intein-SIPA1L2 RapGAP construct (470-1025 by the legend) on chitin resin, purified 6xHis-LC3b in the presence of an excess (5×) of purified 6xHis-Snapin, TBS, 4 °C; both purified
T2 sequence: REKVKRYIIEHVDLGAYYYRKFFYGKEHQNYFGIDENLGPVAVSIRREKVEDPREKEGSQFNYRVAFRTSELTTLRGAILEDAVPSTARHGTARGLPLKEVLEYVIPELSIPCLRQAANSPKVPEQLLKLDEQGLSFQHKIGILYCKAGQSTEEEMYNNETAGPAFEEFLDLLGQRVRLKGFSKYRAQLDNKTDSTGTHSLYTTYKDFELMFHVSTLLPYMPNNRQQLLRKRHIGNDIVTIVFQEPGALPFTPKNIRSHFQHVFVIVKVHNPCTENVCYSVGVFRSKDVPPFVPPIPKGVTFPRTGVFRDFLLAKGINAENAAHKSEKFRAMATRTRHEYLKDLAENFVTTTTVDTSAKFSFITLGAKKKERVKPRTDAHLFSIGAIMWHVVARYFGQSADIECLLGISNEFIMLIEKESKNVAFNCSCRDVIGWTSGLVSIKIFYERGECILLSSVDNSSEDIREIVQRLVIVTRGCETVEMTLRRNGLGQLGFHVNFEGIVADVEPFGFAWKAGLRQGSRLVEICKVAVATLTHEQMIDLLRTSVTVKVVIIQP

[4] = molecular target: T3, GFP-Snapin-S50D (UniProt P60192); experiment: co-IP; heterologous, HEK293T lysate, lysis buffer without SDS; GFP-Snapin forms precipitated with anti-GFP magnetic beads
T3 sequence: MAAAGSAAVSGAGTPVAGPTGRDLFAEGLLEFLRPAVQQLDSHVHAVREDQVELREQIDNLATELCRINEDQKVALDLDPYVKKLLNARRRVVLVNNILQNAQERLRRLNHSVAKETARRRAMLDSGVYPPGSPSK

[5] = molecular target: T4, GFP-Snapin-S50A (UniProt P60192); experiment: as above
T4 sequence: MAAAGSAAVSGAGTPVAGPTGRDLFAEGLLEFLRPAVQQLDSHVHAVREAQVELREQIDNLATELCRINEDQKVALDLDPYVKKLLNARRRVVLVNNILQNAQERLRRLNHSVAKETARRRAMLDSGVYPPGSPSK

[6] = molecular target: MBP-TrkB-454-821 (UniProt Q63604); experiment: pull-down; MBP-TrkB fragments on amylose resin, 2 μg of GST-SIPA1L2 fragment overnight at 4 °C; 20 mM Tris pH 7.5, 1 mM DTT, 3 mM EDTA, 100 mM NaCl, 0.3% TritonX-100; both purified
[7] = molecular target: T5, GST-SIPA1l2-86-99 (UniProt Q5JCS6); experiment: pull-down; 10 µg GST-SIPA1l2-86-99 or GST on Glutathione Sepharose, 20 μg MBP-TrkB-454-465, 120 min at 4 °C in PBS; washes with 0.1% Triton X-100; both purified
T5 sequence: PKKDCSKDLACKTL

Binder: PKKDCSKDLACKTL (peptide, UniProt Q5JCS6 86-99) [TAT-SIPA1L2 peptide]
- binding [1]: binds

B1: PDZ-SIPA1L2-tRFP (domain or fragment, UniProt Q5JCS6 951-1027)
chain: EMTLRRNGLGQLGFHVNFEGIVADVEPFGFAWKAGLRQGSRLVEICKVAVATLTHEQMIDLLRTSVTVKVVIIQPHE
- binding [2]: binds

B2: 6xHis-Snapin (protein, UniProt P60192 1-136)
chain: MAAAGSAAVSGAGTPVAGPTGRDLFAEGLLEFLRPAVQQLDSHVHAVRESQVELREQIDNLATELCRINEDQKVALDLDPYVKKLLNARRRVVLVNNILQNAQERLRRLNHSVAKETARRRAMLDSGVYPPGSPSK
- binding [3]: binds

B3: SIPA1L2-470-1025-tRFP (domain or fragment, UniProt Q5JCS6 470-1025)
chain: REKVKRYIIEHVDLGAYYYRKFFYGKEHQNYFGIDENLGPVAVSIRREKVEDPREKEGSQFNYRVAFRTSELTTLRGAILEDAVPSTARHGTARGLPLKEVLEYVIPELSIPCLRQAANSPKVPEQLLKLDEQGLSFQHKIGILYCKAGQSTEEEMYNNETAGPAFEEFLDLLGQRVRLKGFSKYRAQLDNKTDSTGTHSLYTTYKDFELMFHVSTLLPYMPNNRQQLLRKRHIGNDIVTIVFQEPGALPFTPKNIRSHFQHVFVIVKVHNPCTENVCYSVGVFRSKDVPPFVPPIPKGVTFPRTGVFRDFLLAKGINAENAAHKSEKFRAMATRTRHEYLKDLAENFVTTTTVDTSAKFSFITLGAKKKERVKPRTDAHLFSIGAIMWHVVARYFGQSADIECLLGISNEFIMLIEKESKNVAFNCSCRDVIGWTSGLVSIKIFYERGECILLSSVDNSSEDIREIVQRLVIVTRGCETVEMTLRRNGLGQLGFHVNFEGIVADVEPFGFAWKAGLRQGSRLVEICKVAVATLTHEQMIDLLRTSVTVKVVIIQP
- binding [4]: binds
- binding [5]: binds

B4: GST-ActI-SIPA1L2-1-624 (domain or fragment, UniProt Q5JCS6 1-624)
chain: MSDPRPSQAEKHKLGRAASKFKDPSRAMQSDDYFARKFKAINGSMGPATLNTSSLSEGGGGGGGPANGTPAVPKMGVRARVSEWPPKKDCSKDLACKTLWESRSQSSYESATSIIQNGQNDQVDRQQEEQLDLDFVEAKYTIGDIFVHSPQRGLHPIRQRSNSDITISDIDTEDVLDQHAVNPNTGAALHREYGSTSSIDRQGLSGENVFAMLRGYRIESYDPKVTSSFGFPDFFPCDTAISPSLHAAAQISRGEFVRISGLDYMDGGLLMGRDRDKPFKRRLKSESVETSLFRKLRTVKSEHETFKFTSDLEEGRLDRGIRPWSCQRCFAHYDVQSILFNINEAMATRASVGKRKNITTGASAASQTPVPVGPAGGCESPLGSKEDLNAKENPDADEGDGKSNDLVLSCPYFRNETGGEGDRRIALSRANSASFSSGESCSFESSLSSHCTNAGVSVLEVPRENQPIHREKVKRYIIEHVDLGAYYYRKFFYGKEHQNYFGIDENLGPVAVSIRREKVEDPREKEGSQFNYRVAFRTSELTTLRGAILEDAVPSTARHGTARGLPLKEVLEYVIPELSIPCLRQAANSPKVPEQLLKLDEQGLSFQHKIGILYCKAGQSTEEE
- binding [1]: binds
- binding [6]: binds

Binder: KLARHSKFGMKG (peptide, UniProt Q63604 454-465) [MBP-TrkB-454-465]
- binding [7]: binds

B5: GST-ActII-SIPA1L2-1026-1650 (domain or fragment, UniProt Q5JCS6 1026-1650)
chain: HEDGSPRRGCSELCRIPMVEYKLDSEGTPCEYKTPFRRNTTWHRVPTPALQPVSRASPVPGTPDRLQCQPLLQQAQAAIPRSTSFDRKLPDGTRSSPSNQSSSSDPGPGGSGPWRPQVGYDGCPSPLLLEPQGPGSVECDGSGDHEDLMEVGRLPETKWHGPPSKVLSSYKERALQKDGSCKDSPNKLSHIGDKSCSSHSSSNTLSSNTSSNSDDKHFGSGDLMDPELLGLTYIKGASTDSGIDTTPCMPATILGPMHLTGSRSLIHSRAEQWADAADVSGADEDPAKMYTLHGYASAISSSAADGSMGDLSEVSSHSSGSHRSGSPSTHCSKSTGSLDSSKVYIVTHSGGQQVPGAVAKPYHRQGAANKYVIGWKKSEGSPPPEEPEVTECPRIYGEMDIMSTASQHPAVVGDSVPEAQHVLSKDDFLKLMLPDSPLVEEGRRKFSFYGNLSPRRSLYRTLSDESVCSNRRGSSFASSRSSILDQALPNDILFSTTPPYHSTLPPRTHPAPSMGSLRNEFWFSDGSLSDKSKCADPGLMPLPDTAAGLDWSHLVDAARAFEGLDSDEELGLLCHHASYLDQRVASFCTLTDLQHGQELEGAPELSLCVDPTSGKEFMDTPGERS
- binding [6]: no binding (tested: 2 μg of GST-ActII-SIPA1L2-1026-1650)

From article PMC6884526
